Measurements published in patent US5856435A (Rhone-Poulenc Rorer SA, priority 1994, dated 1999).
HELM strings list residues between dots; [ac] is acetyl, [am] amide, other brackets name non-standard units.

Experiments:
[1] = general procedure: Fmoc solid-phase peptide synthesis; HMP resin; conditions: whole synthesis, TFA salt
[2] = general procedure: Fmoc solid-phase peptide synthesis; HMP resin (Applied Biosystem); conditions: whole synthesis, TFA salt

Row | Substance | final purity (method not given) [1] | final purity (method not given) [2]
1 | PEPTIDE1{L.K.K.L.L.K.K.L.L.K.K.L.L.K.K.L.L.K.K.L.L.K.K.L.L.K.K.L.L.K.K.L.L.K.K.L.L.K.K.L}$$$$V2.0 | greater than 95% | 
2 | PEPTIDE1{L.K.L.K.L.K.L.K.L.K.L.K.L.K.L.K.L.K.L.K.L.K.L.K.L.K.L.K.L.K.L.K.L.K.L.K.L.K.L.K}$$$$V2.0 |  | greater than 90%
